Measured values as given in patent publication US20250100977A1, “MERCAPTOPYRIMIDINE COMPOUNDS THAT INHIBIT NONHOMOLOGOUS END JOINING AND METHODS THEREOF” (INDIAN INSTITUTE OF SCIENCE, priority 2021, published 2025).

Tested on: V(D)J recombination in Nalm6 (pGG49)
Assay: V(D)J recombination in Nalm6 using pGG49
Assay type: cell-based
Method: Evaluation of efficiency of V(D)J recombination following treatment with SCR116 and SCR132 was carried out as depicted in FIGS. 6(A-C). Tables 4 and 5 summarize the effect of SCR116 (1 and 2 μM) and SCR132 (0.5 and 1 μM) on V(D)J recombination in Nalm6 using pGG49 and pGG51, respectively.

SMILES	Amp (A) colonies (1 μM)	CA colonies (1 μM)	Amp (A) colonies (2 μM)	CA colonies (2 μM)	Amp (A) colonies (0.5 μM)	CA colonies (0.5 μM)
Nc1nc(S)nc(O)c1/N=C/c1ccc([N+](=O)[O-])s1 [Compound 16, (E)-6-amino-2-mercapto-5-(((5-nitrothiophen-2-yl)methylene)amino)pyrimidin-4-ol]	100880	65	106320	14	–	–
Nc1nc(S)nc(O)c1/N=C/c1sc(Cl)nc1Cl [Compound 32, (E)-6-amino-5-(((2,4-dichlorothiazol-5-yl)methylene)amino)-2-mercaptopyrimidin-4-ol]	101207	10	–	–	122880	42
